{
  "source": "patent US12290521B2",
  "about": "“Methods and materials for identifying and treating BET inhibitor-resistant cancers” (Mayo Foundation for Medical Education and Research, priority 2018, dated 2025)",
  "tested_on": "C4-2 cells",
  "assay": "RNA-seq transcriptome analysis in C4-2 cells",
  "format": "cell-based, human",
  "settings": "JQ1 1 μM, 24 hours",
  "data": [
    {"smiles": "Cc1sc2c(c1C)C(c1ccc(Cl)cc1)=N[C@@H](CC(=O)OC(C)(C)C)c1nnc(C)n1-2", "note": "[JQ1]", "values": [
      {"measurement": "number of JQ1-downregulated genes in both control and SPOP-F133V cells", "value": "5,079 genes"},
      {"measurement": "number of genes suppressed by JQ1 in control cells but unchanged or upregulated in F133V-mutant cells", "value": "1,017 genes"}
    ]}
  ]
}
